The experiment deals with T1, Thiosulfate sulfurtransferase (Homo sapiens, UniProt Q16762).
T1 sequence (Q16762 whole entry): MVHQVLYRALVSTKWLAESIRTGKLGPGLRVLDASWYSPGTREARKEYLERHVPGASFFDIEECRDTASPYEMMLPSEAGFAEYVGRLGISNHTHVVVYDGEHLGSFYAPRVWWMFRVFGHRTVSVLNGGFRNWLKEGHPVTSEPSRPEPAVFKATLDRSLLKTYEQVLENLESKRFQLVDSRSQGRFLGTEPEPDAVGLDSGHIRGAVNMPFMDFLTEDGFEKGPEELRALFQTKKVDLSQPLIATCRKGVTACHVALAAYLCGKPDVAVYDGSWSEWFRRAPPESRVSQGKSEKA
It counts as ADME.

Structures are written as SMILES.
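Note: native rhodanese of unspecified species, enzyme activity read after 45 min by spectrophotometric detection of Fe(SCN)3 colour, IC50 reflects activity reduction.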

For `CCCCCCCCCCCCCCCC[n+]1ccccc1`, the half-maximal inhibitory concentration (IC50) was > 100 µM.

A word on the IC50: it is the point on the concentration scale where inhibition reaches its midpoint. A low value points to greater potency in that assay.

(Values after ChEMBL document CHEMBL4392822, “HSP60/10 chaperonin systems are inhibited by a variety of approved drugs, natural products, and known bioactive molecules” (Bioorg Med Chem Lett, 2019).)
